# Measurements taken from the supplement of paper PMC3334620.
# The full ranking holds about 33,000 sequences; the median of “E-score (-0.5 to 0.5)” is about -0.0034, and the highest 2% start at about 0.25. The list shows a part of the results.
# Biological target: T1, Yap3 (UniProt P38749)
# T1 sequence: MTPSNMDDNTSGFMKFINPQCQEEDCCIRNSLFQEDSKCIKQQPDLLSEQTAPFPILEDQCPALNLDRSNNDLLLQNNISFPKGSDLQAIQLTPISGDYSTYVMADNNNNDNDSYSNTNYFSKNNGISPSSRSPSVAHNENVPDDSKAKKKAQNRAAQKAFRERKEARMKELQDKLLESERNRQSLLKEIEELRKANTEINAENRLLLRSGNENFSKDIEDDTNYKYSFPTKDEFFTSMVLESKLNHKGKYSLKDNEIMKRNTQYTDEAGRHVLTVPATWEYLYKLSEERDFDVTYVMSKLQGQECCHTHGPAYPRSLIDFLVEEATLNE
# Experiment: PBM E-score (8-mer binding enrichment) (E-score (-0.5 to 0.5)); higher = stronger / more preferred TF binding
# Settings: protein concentration: 100 nM; construct: GST-full length
# In short: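 Using PURExpress in vitro transcription/translation, GST-tagged yeast transcription factors were made in full-length or DNA-binding-domain form. These were applied at about 100-200 nM to double-stranded universal all-10-mer Agilent arrays, and bound protein was detected with fluorescent anti-GST. Scans were normalised with masliner before the Universal PBM Analysis Suite assigned E-scores to ungapped eight-base words pooled with their reverse complements.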
row,Sequence,PBM E-score
1,AGCTAAAT,-0.0986
2,ATATGGCC,-0.12
3,GAAAACTA,0.16
4,CTCGATTA,0.157
5,CGGGCGTC,-0.0573
6,GCAAGGCA,-0.0753
7,AGAGTTGC,-0.00022
8,ACGTGGCT,-0.0617
9,GGAAACAC,0.138
10,TGCACCAA,-0.0224
11,AACGTTGA,0.118
12,TATGTTCA,0.182
13,AGGCTGCC,-0.24
14,CATACACC,0.0314
15,AACACACG,-0.0404
16,ATTGCCTC,0.156
17,CGATTGTA,0.181
18,CAAGGGTA,-0.118
19,ACTGGTAA,0.184
20,GCCGCAGA,0.00175
21,CATTTCAG,-0.0214
22,GCTCGCCA,-0.0002
23,AAACGTGA,0.145
24,AGCAGTTG,0.0505
25,GCTCCCAA,-0.146

row,Sequence,PBM E-score
1,GCAGATGC,-0.011
2,AATGCTTG,-0.0993
3,TTGCTAAA,0.0114
4,GTCCGCCA,-0.134
5,ACATTGTA,0.14
6,AAGCCAAT,0.0764
7,CACAGGCG,-0.0961
8,TAACAAAA,0.192
9,TCGTTGCA,0.0439
10,GGCCACAC,-0.11
11,CACTCCAC,0.0113
12,ACGCTTCG,-0.121
13,CGCCGGCC,-0.299
14,ATCTAGGC,-0.0921
15,TCACGAAA,0.142
16,AGACTCCT,-0.128
17,AAGGCTCG,-0.256
18,CCCTTCGG,-0.253
19,ACCGCGGC,0.00754
20,CAACCTGC,-0.0299
21,ACTACCGC,-0.1
22,AGACTCCC,-0.355
23,TGCCTCAA,-0.135
24,CCTATTAC,0.176
25,CGCGATCA,0.0932

row,Sequence,PBM E-score
1,AGGTGGTA,0.0318
2,ACGACCCT,-0.204
3,CACCTCTG,-0.049
4,CTCTCCAC,-0.146
5,AATCCAAC,0.0433
6,ACGTTTCT,0.126
7,GCGAATGA,0.149
8,CGTCTTTC,-0.075
9,CGCTTATA,0.146
10,ACTTTCTG,0.0731
11,CGACGAAC,-0.0266
12,GCAGTAGA,-0.156
13,AAGCAAAG,0.0645
14,AGATGCCC,0.00381
15,CTGTGTCA,0.0331
16,CGACAGAA,0.172
17,GAGTCTAA,0.00387
18,ACAAAGGG,-0.102
19,CGGCTACG,-0.169
20,GCTTTCAA,0.0571
21,CGTGCCAC,-0.0402
22,CATCCGAG,0.0382
23,CGTGTTAA,0.127
24,GGCACACA,-0.131
25,AGGCGCGC,0.0964

# 7 entries drawn at random from those above:
row,Sequence,PBM E-score
1,AGGTGGTA,0.0318
24,GGCACACA,-0.131
17,GAGTCTAA,0.00387
8,CGTCTTTC,-0.075
5,AATCCAAC,0.0433
12,GCAGTAGA,-0.156
10,ACTTTCTG,0.0731

# (list continues)

row,Sequence,PBM E-score
1,CTCCTGCA,-0.133
2,ATACTGTC,0.0858
3,AGAAGTCA,0.0764
4,AGAGAACG,0.0243
5,ATGTTTAA,-0.0034
6,ATCACAAA,0.158
7,GCCAGGGA,-0.141
8,AACATCGA,0.229
9,CACAGCCG,-0.00488
10,CTCAGAAC,0.114
11,AGTCCTTA,0.0117
12,CCGTTAAA,0.139
13,GGAGCTCA,-0.256
14,ATTGCTAG,-0.107
15,ACAGGCTC,-0.19
16,AGCGTGGA,-0.0213
17,CGGTTCAA,-0.139
18,GGGGTAAC,-0.0441
19,AATAGTAC,0.0612
20,CGATGAGC,-0.0563
21,ATCGGGCG,-0.21
22,ATGCGCAT,0.315
23,GCGTGAAC,-0.192
24,CTATGAAG,0.0547
25,AAGGTGGC,-0.0793

row,Sequence,PBM E-score
1,CGTTTGAA,0.0604
2,CGTACGAG,-0.00494
3,GGTGCTTA,0.0052
4,ACTCTATC,0.0743
5,CAAATCGA,0.0115
6,ATACGTTC,0.0399
7,ACAGTACG,0.0519
8,GATACGAA,0.0436
9,CCGCAATA,0.245
10,CAACAAAG,0.146
11,GACGCCGC,-0.176
12,ACCCGGCA,-0.192
13,AAATAATT,0.287
14,ATTTTGCG,0.155
15,CCGTCGAG,0.0879
16,GCGCCCCC,-0.357
17,AAGGGTTA,0.013
18,AGTAGGGA,-0.0677
19,ATCTCCTC,-0.0278
20,CTACGCTC,-0.122
21,AGTAAAAA,0.208
22,GCTCTGTA,-0.055
23,AGCCTCAC,-0.0914
24,CCGAATGA,0.0795
25,CGGCGCAC,0.0439

row,Sequence,PBM E-score
1,AATGAACC,0.0718
2,ACCACCGT,-0.246
3,AATATTCC,0.281
4,ACGGGGGG,-0.426
5,AATATGCT,0.187
6,ACGAATCA,0.112
7,CGGCCATC,-0.203
8,CAATCCTC,-0.105
9,TAATGTGA,0.241
10,ATGGAGCC,-0.122
11,AGTGGGGG,-0.353
12,AGAAGTTG,-0.0735
13,CCAGCTTA,-0.0581
14,AATATAAG,0.353
15,GGCAGAGA,-0.00962
16,CACCGGCG,-0.0582
17,AATACTGT,0.209
18,AACCTGAT,0.0859
19,AACTGCAT,0.18
20,TGACGCAA,0.0236
21,AGATATTG,0.174
22,AACTCCTA,-0.00383
23,CCGTTTGC,0.0816
24,GAGGACTC,-0.311
25,CCCCGGGC,-0.413

row,Sequence,PBM E-score
1,CTGTGGAC,0.021
2,CAAGGCAC,-0.172
3,GTAGTTCA,0.0513
4,AAGCACTG,0.174
5,TATAAGCA,0.181
6,GTACCTGA,-0.0323
7,ACTAAAGA,-0.105
8,CAGTTTTA,0.112
9,ACCCTAGA,0.0326
10,CTACCAAC,0.0332
11,CGTGAGGA,-0.0432
12,ACTCAACA,0.183
13,GGACCGCA,-0.228
14,AGACGCAG,-0.0583
15,CTTACCGC,-0.12
16,GCCAATGA,-0.177
17,GACGCTGC,-0.0366
18,AGTTACCC,0.00326
19,ATCCGGTA,0.033
20,AGAATTTC,-0.00706
21,ATGTCCAG,-0.0592
22,AGAGATGC,-0.117
